No constants are given. Whether binding was seen depends on the method and setting. Binding seen in cells or lysates may run through a third protein. Here binding means that the protein was enriched with, or labelled near, the bait; the list need not be complete. For some assays here: A no says only that the protein was not detected with the bait.
How the values were obtained:
[1] = target: Jph2 (junctophilin 2) (mouse (endogenous in mouse muscle and heart)) (UniProt Q9ET78); assay: affinity purification with mass spectrometry; Jph2 antibody IP from gastrocnemius muscle of control mice, also of Speg-KO and HA-Speg mice; specific: 100x over IgG and P < 0.01
[2] = target: RyR1 (ryanodine receptor 1, skeletal muscle Ca2+ release channel) (mouse (endogenous in mouse skeletal muscle)) (UniProt E9PZQ0); assay: affinity purification with mass spectrometry; RyR1 antibody IP from gastrocnemius muscle of control (Speg fl/fl) mice, also of Speg-KO and HA-Speg mice; specific: 20x over IgG and P < 0.01
[3] = target: RyR2 (ryanodine receptor 2, cardiac Ca2+ release channel) (mouse (endogenous in mouse heart)) (UniProt E9Q401); assay: affinity purification with mass spectrometry; RyR2 IP from hearts of control (Speg fl/fl) mice
[4] = target: Jph2 (junctophilin 2) (mouse (endogenous in mouse muscle and heart)) (UniProt Q9ET78); assay: affinity purification with mass spectrometry; Jph2 antibody IP from hearts of control mice; specific: P < 0.01 and 100x over IgG
[5] = target: HA-Spegβ (V5/HA-tagged striated muscle preferentially expressed protein kinase β) (mouse (endogenous knock-in in HA-Speg mice)) (UniProt Q62407); assay: affinity purification with mass spectrometry; HA antibody IP from hearts of HA-Speg mice
[6] = target: HA-Spegβ (V5/HA-tagged striated muscle preferentially expressed protein kinase β) (mouse (endogenous knock-in in HA-Speg mice)) (UniProt Q62407); assay: affinity purification with mass spectrometry; HA antibody IP from gastrocnemius muscle of HA-Speg mice; HA antibody pulldowns from WT muscle define nonspecific; >10x purification, Holm-Sidak test and/or FDR; IP buffer 50 mM Tris-HCl pH 7.4, 170 mM NaCl, 1 mM EDTA, 1% NP-40
[7] = target: T1, Fsd2 (Fibronectin Type III and SPRY Domain Containing 2) (mouse (endogenous in mouse muscle and heart)) (UniProt Q8BZ52); assay: affinity purification with mass spectrometry; Fsd2 antibody IP from skeletal muscle of control mice; specific: 20x over IgG and P < 0.01
T1 sequence: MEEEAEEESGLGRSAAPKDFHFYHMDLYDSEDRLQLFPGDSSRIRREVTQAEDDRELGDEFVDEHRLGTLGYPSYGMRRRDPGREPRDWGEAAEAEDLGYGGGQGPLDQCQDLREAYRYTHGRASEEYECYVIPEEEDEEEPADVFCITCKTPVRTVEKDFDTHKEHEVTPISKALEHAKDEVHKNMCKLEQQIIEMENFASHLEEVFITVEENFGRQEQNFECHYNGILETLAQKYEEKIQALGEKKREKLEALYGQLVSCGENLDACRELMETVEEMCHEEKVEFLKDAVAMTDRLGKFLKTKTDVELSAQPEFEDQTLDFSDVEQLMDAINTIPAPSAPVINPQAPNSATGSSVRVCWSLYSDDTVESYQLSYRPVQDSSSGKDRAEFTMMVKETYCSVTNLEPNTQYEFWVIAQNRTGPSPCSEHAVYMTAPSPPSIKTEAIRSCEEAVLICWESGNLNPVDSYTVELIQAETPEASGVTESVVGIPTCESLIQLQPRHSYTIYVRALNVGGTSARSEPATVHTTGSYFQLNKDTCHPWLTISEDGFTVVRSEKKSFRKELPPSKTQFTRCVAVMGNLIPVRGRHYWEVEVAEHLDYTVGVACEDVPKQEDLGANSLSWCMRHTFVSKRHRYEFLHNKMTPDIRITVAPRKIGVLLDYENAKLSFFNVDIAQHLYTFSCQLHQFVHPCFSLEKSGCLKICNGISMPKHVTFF

The chains behind the UniProt entries cited, without tags or fusion partners. Residues count along the entry.
UniProt Q9ET78: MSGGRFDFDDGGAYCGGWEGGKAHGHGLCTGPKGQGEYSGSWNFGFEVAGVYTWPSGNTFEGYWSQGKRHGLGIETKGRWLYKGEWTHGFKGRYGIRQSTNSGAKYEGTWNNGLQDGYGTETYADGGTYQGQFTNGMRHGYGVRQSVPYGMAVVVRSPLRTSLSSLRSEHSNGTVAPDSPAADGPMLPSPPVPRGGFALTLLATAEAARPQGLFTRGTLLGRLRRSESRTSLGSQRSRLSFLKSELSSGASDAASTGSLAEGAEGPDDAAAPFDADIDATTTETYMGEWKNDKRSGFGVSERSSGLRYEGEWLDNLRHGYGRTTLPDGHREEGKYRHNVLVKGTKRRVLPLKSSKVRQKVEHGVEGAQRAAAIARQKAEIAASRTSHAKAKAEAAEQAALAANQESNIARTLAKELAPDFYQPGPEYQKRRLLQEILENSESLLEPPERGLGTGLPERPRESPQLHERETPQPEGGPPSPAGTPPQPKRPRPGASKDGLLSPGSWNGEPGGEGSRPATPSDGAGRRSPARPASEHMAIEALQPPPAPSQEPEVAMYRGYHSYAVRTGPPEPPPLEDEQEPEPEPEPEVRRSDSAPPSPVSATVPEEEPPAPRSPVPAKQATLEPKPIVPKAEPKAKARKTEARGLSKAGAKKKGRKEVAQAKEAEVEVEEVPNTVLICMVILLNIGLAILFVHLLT
UniProt E9Q401: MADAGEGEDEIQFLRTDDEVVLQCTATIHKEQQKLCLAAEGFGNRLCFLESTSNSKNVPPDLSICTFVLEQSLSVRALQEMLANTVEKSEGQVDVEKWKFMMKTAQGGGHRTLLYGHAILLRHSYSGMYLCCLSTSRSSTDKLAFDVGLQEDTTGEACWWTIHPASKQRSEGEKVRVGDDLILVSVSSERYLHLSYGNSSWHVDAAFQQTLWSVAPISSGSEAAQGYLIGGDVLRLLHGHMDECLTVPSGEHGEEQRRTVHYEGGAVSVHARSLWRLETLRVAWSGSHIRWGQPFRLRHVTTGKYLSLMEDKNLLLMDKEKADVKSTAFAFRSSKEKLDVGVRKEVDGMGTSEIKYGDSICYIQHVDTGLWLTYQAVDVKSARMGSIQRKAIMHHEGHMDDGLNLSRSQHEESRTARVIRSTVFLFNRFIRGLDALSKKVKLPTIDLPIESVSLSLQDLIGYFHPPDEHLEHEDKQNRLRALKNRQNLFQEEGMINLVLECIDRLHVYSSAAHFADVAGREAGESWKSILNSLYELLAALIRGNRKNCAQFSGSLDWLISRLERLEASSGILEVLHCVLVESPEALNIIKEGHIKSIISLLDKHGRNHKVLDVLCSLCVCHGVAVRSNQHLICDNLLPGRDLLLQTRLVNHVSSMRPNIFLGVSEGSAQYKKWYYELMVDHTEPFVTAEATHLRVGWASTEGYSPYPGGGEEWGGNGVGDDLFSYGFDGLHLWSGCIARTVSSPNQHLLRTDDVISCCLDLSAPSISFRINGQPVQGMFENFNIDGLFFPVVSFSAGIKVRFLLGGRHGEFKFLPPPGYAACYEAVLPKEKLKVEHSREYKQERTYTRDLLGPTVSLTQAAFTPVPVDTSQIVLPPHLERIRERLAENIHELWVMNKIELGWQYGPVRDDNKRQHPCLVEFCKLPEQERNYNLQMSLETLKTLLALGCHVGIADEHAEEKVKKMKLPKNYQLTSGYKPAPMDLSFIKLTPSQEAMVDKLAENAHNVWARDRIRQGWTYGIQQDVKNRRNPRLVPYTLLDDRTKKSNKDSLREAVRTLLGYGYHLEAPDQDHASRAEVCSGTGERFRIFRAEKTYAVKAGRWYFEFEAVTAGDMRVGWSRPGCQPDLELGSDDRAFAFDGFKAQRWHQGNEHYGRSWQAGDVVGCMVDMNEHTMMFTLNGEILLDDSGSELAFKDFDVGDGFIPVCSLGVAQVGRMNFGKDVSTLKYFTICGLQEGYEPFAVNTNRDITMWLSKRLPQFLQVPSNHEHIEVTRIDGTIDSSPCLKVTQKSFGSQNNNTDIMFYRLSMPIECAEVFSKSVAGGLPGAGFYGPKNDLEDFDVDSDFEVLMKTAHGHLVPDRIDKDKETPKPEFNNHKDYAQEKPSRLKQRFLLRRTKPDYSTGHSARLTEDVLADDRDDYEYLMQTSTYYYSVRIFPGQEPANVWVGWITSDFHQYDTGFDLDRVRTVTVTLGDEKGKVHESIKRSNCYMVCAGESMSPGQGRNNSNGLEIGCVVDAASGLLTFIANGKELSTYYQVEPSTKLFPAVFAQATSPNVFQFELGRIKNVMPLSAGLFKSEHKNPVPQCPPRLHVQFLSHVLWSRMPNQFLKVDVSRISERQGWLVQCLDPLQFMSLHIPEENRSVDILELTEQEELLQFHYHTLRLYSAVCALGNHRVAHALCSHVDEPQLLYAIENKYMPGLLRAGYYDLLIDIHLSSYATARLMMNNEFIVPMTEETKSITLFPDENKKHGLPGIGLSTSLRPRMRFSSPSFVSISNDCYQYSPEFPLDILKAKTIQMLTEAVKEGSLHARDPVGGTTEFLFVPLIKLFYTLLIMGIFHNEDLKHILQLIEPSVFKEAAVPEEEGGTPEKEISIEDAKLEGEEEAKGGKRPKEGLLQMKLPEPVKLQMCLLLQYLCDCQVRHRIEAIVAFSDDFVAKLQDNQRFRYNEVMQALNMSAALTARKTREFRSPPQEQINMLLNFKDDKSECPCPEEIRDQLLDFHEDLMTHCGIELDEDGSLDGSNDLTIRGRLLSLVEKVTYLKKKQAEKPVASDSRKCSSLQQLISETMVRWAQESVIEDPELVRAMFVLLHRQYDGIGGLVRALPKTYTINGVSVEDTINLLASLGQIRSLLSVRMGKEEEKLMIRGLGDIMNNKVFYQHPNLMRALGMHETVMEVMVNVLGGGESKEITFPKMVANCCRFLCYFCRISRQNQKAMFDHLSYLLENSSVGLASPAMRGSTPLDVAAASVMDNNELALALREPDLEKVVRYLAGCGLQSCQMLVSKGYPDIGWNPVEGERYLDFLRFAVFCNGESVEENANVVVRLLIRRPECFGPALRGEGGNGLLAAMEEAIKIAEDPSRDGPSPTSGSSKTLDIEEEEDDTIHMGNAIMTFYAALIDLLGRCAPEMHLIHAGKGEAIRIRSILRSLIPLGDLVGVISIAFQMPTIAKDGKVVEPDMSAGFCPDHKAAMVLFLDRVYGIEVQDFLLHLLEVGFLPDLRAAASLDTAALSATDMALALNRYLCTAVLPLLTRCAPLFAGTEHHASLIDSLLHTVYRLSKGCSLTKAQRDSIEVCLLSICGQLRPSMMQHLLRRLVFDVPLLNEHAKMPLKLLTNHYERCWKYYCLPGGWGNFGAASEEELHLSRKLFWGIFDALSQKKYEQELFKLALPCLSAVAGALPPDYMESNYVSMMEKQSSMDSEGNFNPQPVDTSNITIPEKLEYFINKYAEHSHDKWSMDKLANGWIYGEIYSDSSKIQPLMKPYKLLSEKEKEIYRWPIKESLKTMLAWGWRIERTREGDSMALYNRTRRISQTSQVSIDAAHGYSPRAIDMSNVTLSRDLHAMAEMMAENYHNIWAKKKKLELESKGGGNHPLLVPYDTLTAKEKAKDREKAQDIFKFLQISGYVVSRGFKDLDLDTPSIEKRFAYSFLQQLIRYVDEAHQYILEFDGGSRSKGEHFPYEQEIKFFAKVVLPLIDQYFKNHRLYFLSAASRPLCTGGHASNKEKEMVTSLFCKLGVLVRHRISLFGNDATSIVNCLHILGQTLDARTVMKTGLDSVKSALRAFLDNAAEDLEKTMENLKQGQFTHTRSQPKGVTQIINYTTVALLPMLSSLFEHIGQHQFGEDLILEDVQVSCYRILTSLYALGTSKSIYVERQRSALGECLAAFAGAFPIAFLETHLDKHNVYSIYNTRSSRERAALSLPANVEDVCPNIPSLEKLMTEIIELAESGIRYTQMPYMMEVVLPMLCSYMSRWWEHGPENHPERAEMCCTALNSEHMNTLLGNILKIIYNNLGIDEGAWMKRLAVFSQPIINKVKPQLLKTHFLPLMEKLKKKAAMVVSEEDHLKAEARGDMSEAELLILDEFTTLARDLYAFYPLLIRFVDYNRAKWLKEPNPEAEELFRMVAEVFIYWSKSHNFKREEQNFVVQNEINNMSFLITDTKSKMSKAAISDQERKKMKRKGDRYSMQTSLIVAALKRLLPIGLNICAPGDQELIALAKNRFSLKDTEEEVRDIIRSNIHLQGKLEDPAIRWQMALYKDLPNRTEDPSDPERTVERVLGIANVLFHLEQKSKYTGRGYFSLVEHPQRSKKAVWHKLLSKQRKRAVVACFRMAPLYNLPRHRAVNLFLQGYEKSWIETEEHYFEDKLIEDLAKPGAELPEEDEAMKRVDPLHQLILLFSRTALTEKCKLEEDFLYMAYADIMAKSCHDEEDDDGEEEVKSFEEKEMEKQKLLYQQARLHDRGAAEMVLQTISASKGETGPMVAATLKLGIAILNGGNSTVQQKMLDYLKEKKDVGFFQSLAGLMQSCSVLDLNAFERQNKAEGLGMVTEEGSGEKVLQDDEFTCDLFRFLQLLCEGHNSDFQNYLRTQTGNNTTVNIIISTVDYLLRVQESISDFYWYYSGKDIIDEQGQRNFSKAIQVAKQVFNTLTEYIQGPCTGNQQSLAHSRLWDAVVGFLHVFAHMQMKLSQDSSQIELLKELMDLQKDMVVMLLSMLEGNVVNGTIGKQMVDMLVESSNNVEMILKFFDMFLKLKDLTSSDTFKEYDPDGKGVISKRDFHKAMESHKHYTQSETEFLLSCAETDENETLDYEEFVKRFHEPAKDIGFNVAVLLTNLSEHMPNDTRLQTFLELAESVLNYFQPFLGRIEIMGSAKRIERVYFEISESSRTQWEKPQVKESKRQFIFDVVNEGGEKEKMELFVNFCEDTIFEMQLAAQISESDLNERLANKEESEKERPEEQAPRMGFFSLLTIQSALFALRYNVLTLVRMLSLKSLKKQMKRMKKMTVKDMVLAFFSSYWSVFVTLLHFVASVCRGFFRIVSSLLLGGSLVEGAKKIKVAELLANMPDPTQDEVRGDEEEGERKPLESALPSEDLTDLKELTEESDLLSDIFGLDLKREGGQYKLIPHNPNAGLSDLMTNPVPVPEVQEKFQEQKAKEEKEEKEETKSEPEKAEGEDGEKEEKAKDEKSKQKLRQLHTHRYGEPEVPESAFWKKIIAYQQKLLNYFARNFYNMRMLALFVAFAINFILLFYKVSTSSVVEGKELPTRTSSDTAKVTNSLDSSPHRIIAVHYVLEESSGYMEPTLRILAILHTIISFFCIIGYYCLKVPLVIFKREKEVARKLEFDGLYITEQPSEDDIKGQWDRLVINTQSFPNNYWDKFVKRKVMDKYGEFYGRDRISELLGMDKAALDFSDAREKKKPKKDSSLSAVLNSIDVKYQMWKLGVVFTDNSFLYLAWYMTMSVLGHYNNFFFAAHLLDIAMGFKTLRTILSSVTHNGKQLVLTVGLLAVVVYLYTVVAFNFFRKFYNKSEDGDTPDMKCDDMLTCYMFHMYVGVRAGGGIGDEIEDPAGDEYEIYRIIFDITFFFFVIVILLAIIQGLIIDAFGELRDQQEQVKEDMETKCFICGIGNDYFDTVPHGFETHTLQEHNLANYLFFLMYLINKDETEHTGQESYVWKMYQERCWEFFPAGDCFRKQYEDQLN
UniProt P26883: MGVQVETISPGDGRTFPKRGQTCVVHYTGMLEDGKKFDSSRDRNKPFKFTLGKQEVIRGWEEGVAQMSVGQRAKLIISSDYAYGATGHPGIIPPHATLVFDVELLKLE
UniProt Q9Z1J3, residues 18-459: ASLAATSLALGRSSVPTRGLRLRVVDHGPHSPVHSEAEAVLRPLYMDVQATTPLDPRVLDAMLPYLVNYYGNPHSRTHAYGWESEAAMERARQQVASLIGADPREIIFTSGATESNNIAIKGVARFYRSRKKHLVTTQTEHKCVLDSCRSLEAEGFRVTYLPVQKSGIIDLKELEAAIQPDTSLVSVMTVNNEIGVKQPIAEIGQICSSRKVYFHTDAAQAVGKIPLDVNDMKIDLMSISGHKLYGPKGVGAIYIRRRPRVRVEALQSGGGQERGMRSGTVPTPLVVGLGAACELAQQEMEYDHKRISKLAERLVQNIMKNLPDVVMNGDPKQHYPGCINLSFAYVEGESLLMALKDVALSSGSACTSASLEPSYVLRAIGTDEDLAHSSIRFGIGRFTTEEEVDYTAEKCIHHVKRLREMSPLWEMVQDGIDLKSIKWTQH
UniProt O09165, residues 35-405: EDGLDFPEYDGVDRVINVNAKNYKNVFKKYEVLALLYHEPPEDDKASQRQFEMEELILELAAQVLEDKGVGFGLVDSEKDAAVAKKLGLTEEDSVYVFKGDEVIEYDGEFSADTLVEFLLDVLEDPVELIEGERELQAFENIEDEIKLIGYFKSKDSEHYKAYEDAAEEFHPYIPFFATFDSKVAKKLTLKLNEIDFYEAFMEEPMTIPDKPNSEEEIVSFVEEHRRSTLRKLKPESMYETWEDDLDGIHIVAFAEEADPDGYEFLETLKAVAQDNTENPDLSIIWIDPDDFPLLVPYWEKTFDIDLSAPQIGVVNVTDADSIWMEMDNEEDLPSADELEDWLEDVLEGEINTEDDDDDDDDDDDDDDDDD

Substance | binding [1] | binding [2] | other results
CaMKIIα (from UniProt P11798 1-478) (enzyme) | binds | binds | –
Cacna1c (CaV1.2α1c) (from UniProt Q01815 1-2139) | – | – | binding [4]: binds
Cmya5 (Cardiomyopathy-Associated Protein 5) (from UniProt Q70KF4 1-3739) | – | – | binding [5]: binds; binding [6]: binds
Fkbp12 (FK506 binding protein 12) (from UniProt P26883 1-108) | binds | – | –
Nfs1 (cysteine desulfurase) (from UniProt Q9Z1J3 18-459) (enzyme) | – | – | binding [3]: binds
Ppapdc3 (an inactive sphingosine-1-phosphate phosphatase) (from UniProt Q91WB2 1-271) | – | – | binding [3]: binds
RyR1 (ryanodine receptor 1, skeletal muscle Ca2+ release channel) (from UniProt E9PZQ0 1-5035) | binds | – | –
Tfg (Trafficking From ER To Golgi Regulator) (from UniProt Q9Z1A1 1-397) | – | – | binding [7]: binds
obscurin (Obscn) (from UniProt A2AAJ9 1-8886) | binds | binds | binding [6]: no binding

The next lines start with results.

binding [1] | binding [2] | Substance | other results
binds | binds | CaMKIIγ (from UniProt Q923T9 1-529) (enzyme) | –
binds | – | CaMKIIδ (from UniProt Q6PHZ2 1-499) (enzyme) | binding [3]: binds
binds | – | Cacna1s (CaV1.1α1s) (from UniProt Q02789 1-1852) | –
binds | binds | Casq1 (calsequestrin 1) (from UniProt O09165 35-405) | –
